This is an account of results in PMC3734201.

No constants are given. Whether binding was seen depends on the method and setting. Binding seen in cells or lysates may run through a third protein. Sequences can lack the tags named with a protein.

The target in the assay is T1, GST fusion of domain 3 of generic RON2 (amino acids 1293-1345) (Toxoplasma gondii) (UniProt B6KV60).
T1 sequence: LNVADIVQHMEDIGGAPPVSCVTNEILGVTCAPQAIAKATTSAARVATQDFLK
Briefly: pull-down; Glutathione-sepharose beads prebound with 0.5 µM GST, GST-gD3 or GST-sD3 were added to cleared NP-40 lysate of tachyzoites (10 mM Tris-HCl pH 8.0, 150 mM NaCl, 1 mM EDTA, 0.1% NP-40). Rotated at room temperature for about two hours, washed three times, then immunoblotted; only the target purified. (A western blot detects proteins with antibodies after separation by electrophoresis.)

With “full-length sporoAMA1 with a C-terminal HA tag (Toxoplasma gondii)”, the binding result was “no binding (tested: 0.5 µM GST fusion prebound to beads)”.
